In paper PMC12099056, “Targeting the Exonic Circular OGT RNA/O-GlcNAc Transferase/Forkhead Box C1 Axis Inhibits Asparagine- and Alanine-Mediated Ferroptosis Repression in Neuroblastoma Progression” (Research, 2025):
Results are given in words; binding and its absence hold for the method and conditions named. Binding seen in cells or lysates may run through a third protein. Some binding calls cover weakened binding; strength is not graded here. For some assays here: Tags and fused reporters may be left off the sequences shown.

T1: forkhead box C1 (human (endogenous in IMR-32 and SK-N-BE(2))) (UniProt Q12948)
T1 sequence: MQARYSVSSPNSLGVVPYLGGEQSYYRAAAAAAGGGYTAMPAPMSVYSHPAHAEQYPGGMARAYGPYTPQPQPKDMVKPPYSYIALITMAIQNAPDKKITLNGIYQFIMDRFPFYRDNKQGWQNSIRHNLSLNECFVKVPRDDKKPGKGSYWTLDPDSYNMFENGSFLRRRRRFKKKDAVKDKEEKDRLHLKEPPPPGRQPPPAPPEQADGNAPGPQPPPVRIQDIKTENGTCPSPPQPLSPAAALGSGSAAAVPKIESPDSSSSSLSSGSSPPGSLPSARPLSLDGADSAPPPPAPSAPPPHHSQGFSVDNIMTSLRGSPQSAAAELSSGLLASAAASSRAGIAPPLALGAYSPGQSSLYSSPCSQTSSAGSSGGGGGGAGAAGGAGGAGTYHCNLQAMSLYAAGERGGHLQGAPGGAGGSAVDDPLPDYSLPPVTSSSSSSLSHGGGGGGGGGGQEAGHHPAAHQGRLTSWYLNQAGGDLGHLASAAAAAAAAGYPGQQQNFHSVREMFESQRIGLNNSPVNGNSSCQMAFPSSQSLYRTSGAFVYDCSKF

T2: Flag-tagged FOXC1 (wild-type) (human) (UniProt Q12948)
T2 sequence: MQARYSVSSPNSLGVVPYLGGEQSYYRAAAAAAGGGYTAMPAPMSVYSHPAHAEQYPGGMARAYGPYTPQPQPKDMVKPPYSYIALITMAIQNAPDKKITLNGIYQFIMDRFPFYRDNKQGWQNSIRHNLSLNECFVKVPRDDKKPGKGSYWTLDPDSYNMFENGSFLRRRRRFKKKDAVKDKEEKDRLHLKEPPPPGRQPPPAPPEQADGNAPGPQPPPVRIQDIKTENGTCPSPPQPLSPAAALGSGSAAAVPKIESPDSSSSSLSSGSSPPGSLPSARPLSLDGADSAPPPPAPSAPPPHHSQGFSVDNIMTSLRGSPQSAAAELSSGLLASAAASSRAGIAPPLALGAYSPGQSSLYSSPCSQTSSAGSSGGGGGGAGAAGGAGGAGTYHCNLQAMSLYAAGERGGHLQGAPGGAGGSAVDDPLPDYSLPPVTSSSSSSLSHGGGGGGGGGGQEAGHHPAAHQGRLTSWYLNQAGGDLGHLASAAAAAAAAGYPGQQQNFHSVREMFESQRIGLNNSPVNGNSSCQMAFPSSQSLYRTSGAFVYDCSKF

T3: FOXC1 BiFC construct (human) (UniProt Q12948)
T3 sequence: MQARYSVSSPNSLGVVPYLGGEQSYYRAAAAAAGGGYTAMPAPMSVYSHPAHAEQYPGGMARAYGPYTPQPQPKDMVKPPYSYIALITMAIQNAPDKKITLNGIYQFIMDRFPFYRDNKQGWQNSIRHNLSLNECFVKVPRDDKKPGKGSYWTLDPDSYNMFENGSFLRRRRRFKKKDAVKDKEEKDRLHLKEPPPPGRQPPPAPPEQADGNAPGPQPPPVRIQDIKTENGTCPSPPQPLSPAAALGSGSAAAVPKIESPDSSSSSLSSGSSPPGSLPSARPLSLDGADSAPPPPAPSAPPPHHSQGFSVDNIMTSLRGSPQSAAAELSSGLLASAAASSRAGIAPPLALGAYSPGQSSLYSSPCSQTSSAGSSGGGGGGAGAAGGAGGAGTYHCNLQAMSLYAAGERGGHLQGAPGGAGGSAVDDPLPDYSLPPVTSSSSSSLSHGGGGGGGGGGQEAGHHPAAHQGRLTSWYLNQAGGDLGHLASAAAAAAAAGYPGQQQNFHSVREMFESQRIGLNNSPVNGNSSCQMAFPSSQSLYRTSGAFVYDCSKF


Tests used:
[1] = biological target: T1, forkhead box C1 (human (endogenous in IMR-32 and SK-N-BE(2))); test: co-IP; validating co-IP and Western blot of endogenous proteins in IMR-32 cells
[2] = biological target: T1, forkhead box C1 (human (endogenous in IMR-32 and SK-N-BE(2))); test: co-IP; SK-N-BE(2) cells treated with solvent or miconazole nitrate (MN), co-IP and Western blot
[3] = biological target: T1, forkhead box C1 (human (endogenous in IMR-32 and SK-N-BE(2))); test: co-IP; IMR-32 cells stably transfected with empty vector (mock), ecircOGT or ecircOGT Mut, co-IP and Western blot
[4] = biological target: T1, forkhead box C1 (human (endogenous in IMR-32 and SK-N-BE(2))); test: co-IP; endogenous proteins; cells treated with control DMEM/F12 or EBSS for 6 h (text: SK-N-BE(2); legend: SH-SY5Y)
[5] = biological target: T2, Flag-tagged FOXC1 (wild-type) (human); test: co-IP; SH-SY5Y cells transfected with HA-tagged OGT and Flag-tagged FOXC1 (wild-type, truncations or mutants), co-IP and Western blot
[6] = biological target: T3, FOXC1 BiFC construct (human); test: split reporter; BiFC; pBiFC-VC155 and pBiFC-VN173 constructs co-transfected for 24 h, confocal microscope

Binder | binding [2] | binding [3] | also measured
O-GlcNAc transferase (enzyme, UniProt O15294 1-1046) MASSVGNVADSTEPTKRMLSFQGLAELAHREYQAGDFEAAERHCMQLWRQEPDNTGVLLLLSSIHFQCRRLDRSAHFSTLAIKQNPLLAEAYSNLGNVYKERGQLQEAIEHYRHALRLKPDFIDGYINLAAALVAAGDMEGAVQAYVSALQYNPDLYCVRSDLGNLLKALGRLEEAKACYLKAIETQPNFAVAWSNLGCVFNAQGEIWLAIHHFEKAVTLDPNFLDAYINLGNVLKEARIFDRAVAAYLRALSLSPNHAVVHGNLACVYYEQGLIDLAIDTYRRAIELQPHFPDAYCNLANALKEKGSVAEAEDCYNTALRLCPTHADSLNNLANIKREQGNIEEAVRLYRKALEVFPEFAAAHSNLASVLQQQGKLQEALMHYKEAIRISPTFADAYSNMGNTLKEMQDVQGALQCYTRAIQINPAFADAHSNLASIHKDSGNIPEAIASYRTALKLKPDFPDAYCNLAHCLQIVCDWTDYDERMKKLVSIVADQLEKNRLPSVHPHHSMLYPLSHGFRKAIAERHGNLCLDKINVLHKPPYEHPKDLKLSDGRLRVGYVSSDFGNHPTSHLMQSIPGMHNPDKFEVFCYALSPDDGTNFRVKVMAEANHFIDLSQIPCNGKAADRIHQDGIHILVNMNGYTKGARNELFALRPAPIQAMWLGYPGTSGALFMDYIITDQETSPAEVAEQYSEKLAYMPHTFFIGDHANMFPHLKKKAVIDFKSNGHIYDNRIVLNGIDLKAFLDSLPDVKIVKMKCPDGGDNADSSNTALNMPVIPMNTIAEAVIEMINRGQIQITINGFSISNGLATTQINNKAATGEEVPRTIIVTTRSQYGLPEDAIVYCNFNQLYKIDPSTLQMWANILKRVPNSVLWLLRFPAVGEPNIQQYAQNMGLPQNRIIFSPVAPKEEHVRRGQLADVCLDTPLCNGHTTGMDVLWAGTPMVTMPGETLASRVAASQLTCLGCLELIAKNRQEYEDIAVKLGTDLEYLKKVRGKVWKQRISSPLFNTKQYTMELERLYLQMWEHYAAGNKPDHMIKPVEVTESA | binds | binds | binding [1]: binds; binding [4]: binds
OGT-570aa encoded by exonic circular OGT RNA (ecircOGT), from stably transfected ecircOGT (protein, UniProt O15294 382-948) MHYKEAIRISPTFADAYSNMGNTLKEMQDVQGALQCYTRAIQINPAFADAHSNLASIHKDSGNIPEAIASYRTALKLKPDFPDAYCNLAHCLQIVCDWTDYDERMKKLVSIVADQLEKNRLPSVHPHHSMLYPLSHGFRKAIAERHGNLCLDKINVLHKPPYEHPKDLKLSDGRLRVGYVSSDFGNHPTSHLMQSIPGMHNPDKFEVFCYALSPDDGTNFRVKVMAEANHFIDLSQIPCNGKAADRIHQDGIHILVNMNGYTKGARNELFALRPAPIQAMWLGYPGTSGALFMDYIITDQETSPAEVAEQYSEKLAYMPHTFFIGDHANMFPHLKKKAVIDFKSNGHIYDNRIVLNGIDLKAFLDSLPDVKIVKMKCPDGGDNADSSNTALNMPVIPMNTIAEAVIEMINRGQIQITINGFSISNGLATTQINNKAATGEEVPRTIIVTTRSQYGLPEDAIVYCNFNQLYKIDPSTLQMWANILKRVPNSVLWLLRFPAVGEPNIQQYAQNMGLPQNRIIFSPVAPKEEHVRRGQLADVCLDTPLCNGHTTGMDVLWAGTPMVTMPGCHP | – | binds | –
OGT-570aa, endogenous (protein, UniProt O15294 382-948) MHYKEAIRISPTFADAYSNMGNTLKEMQDVQGALQCYTRAIQINPAFADAHSNLASIHKDSGNIPEAIASYRTALKLKPDFPDAYCNLAHCLQIVCDWTDYDERMKKLVSIVADQLEKNRLPSVHPHHSMLYPLSHGFRKAIAERHGNLCLDKINVLHKPPYEHPKDLKLSDGRLRVGYVSSDFGNHPTSHLMQSIPGMHNPDKFEVFCYALSPDDGTNFRVKVMAEANHFIDLSQIPCNGKAADRIHQDGIHILVNMNGYTKGARNELFALRPAPIQAMWLGYPGTSGALFMDYIITDQETSPAEVAEQYSEKLAYMPHTFFIGDHANMFPHLKKKAVIDFKSNGHIYDNRIVLNGIDLKAFLDSLPDVKIVKMKCPDGGDNADSSNTALNMPVIPMNTIAEAVIEMINRGQIQITINGFSISNGLATTQINNKAATGEEVPRTIIVTTRSQYGLPEDAIVYCNFNQLYKIDPSTLQMWANILKRVPNSVLWLLRFPAVGEPNIQQYAQNMGLPQNRIIFSPVAPKEEHVRRGQLADVCLDTPLCNGHTTGMDVLWAGTPMVTMPGCHP | binds | – | –
HA-tagged OGT (wild-type) (enzyme, UniProt O15294 1-1046) MASSVGNVADSTEPTKRMLSFQGLAELAHREYQAGDFEAAERHCMQLWRQEPDNTGVLLLLSSIHFQCRRLDRSAHFSTLAIKQNPLLAEAYSNLGNVYKERGQLQEAIEHYRHALRLKPDFIDGYINLAAALVAAGDMEGAVQAYVSALQYNPDLYCVRSDLGNLLKALGRLEEAKACYLKAIETQPNFAVAWSNLGCVFNAQGEIWLAIHHFEKAVTLDPNFLDAYINLGNVLKEARIFDRAVAAYLRALSLSPNHAVVHGNLACVYYEQGLIDLAIDTYRRAIELQPHFPDAYCNLANALKEKGSVAEAEDCYNTALRLCPTHADSLNNLANIKREQGNIEEAVRLYRKALEVFPEFAAAHSNLASVLQQQGKLQEALMHYKEAIRISPTFADAYSNMGNTLKEMQDVQGALQCYTRAIQINPAFADAHSNLASIHKDSGNIPEAIASYRTALKLKPDFPDAYCNLAHCLQIVCDWTDYDERMKKLVSIVADQLEKNRLPSVHPHHSMLYPLSHGFRKAIAERHGNLCLDKINVLHKPPYEHPKDLKLSDGRLRVGYVSSDFGNHPTSHLMQSIPGMHNPDKFEVFCYALSPDDGTNFRVKVMAEANHFIDLSQIPCNGKAADRIHQDGIHILVNMNGYTKGARNELFALRPAPIQAMWLGYPGTSGALFMDYIITDQETSPAEVAEQYSEKLAYMPHTFFIGDHANMFPHLKKKAVIDFKSNGHIYDNRIVLNGIDLKAFLDSLPDVKIVKMKCPDGGDNADSSNTALNMPVIPMNTIAEAVIEMINRGQIQITINGFSISNGLATTQINNKAATGEEVPRTIIVTTRSQYGLPEDAIVYCNFNQLYKIDPSTLQMWANILKRVPNSVLWLLRFPAVGEPNIQQYAQNMGLPQNRIIFSPVAPKEEHVRRGQLADVCLDTPLCNGHTTGMDVLWAGTPMVTMPGETLASRVAASQLTCLGCLELIAKNRQEYEDIAVKLGTDLEYLKKVRGKVWKQRISSPLFNTKQYTMELERLYLQMWEHYAAGNKPDHMIKPVEVTESA | – | – | binding [5]: binds
OGT BiFC construct (enzyme, UniProt O15294 1-1046) MASSVGNVADSTEPTKRMLSFQGLAELAHREYQAGDFEAAERHCMQLWRQEPDNTGVLLLLSSIHFQCRRLDRSAHFSTLAIKQNPLLAEAYSNLGNVYKERGQLQEAIEHYRHALRLKPDFIDGYINLAAALVAAGDMEGAVQAYVSALQYNPDLYCVRSDLGNLLKALGRLEEAKACYLKAIETQPNFAVAWSNLGCVFNAQGEIWLAIHHFEKAVTLDPNFLDAYINLGNVLKEARIFDRAVAAYLRALSLSPNHAVVHGNLACVYYEQGLIDLAIDTYRRAIELQPHFPDAYCNLANALKEKGSVAEAEDCYNTALRLCPTHADSLNNLANIKREQGNIEEAVRLYRKALEVFPEFAAAHSNLASVLQQQGKLQEALMHYKEAIRISPTFADAYSNMGNTLKEMQDVQGALQCYTRAIQINPAFADAHSNLASIHKDSGNIPEAIASYRTALKLKPDFPDAYCNLAHCLQIVCDWTDYDERMKKLVSIVADQLEKNRLPSVHPHHSMLYPLSHGFRKAIAERHGNLCLDKINVLHKPPYEHPKDLKLSDGRLRVGYVSSDFGNHPTSHLMQSIPGMHNPDKFEVFCYALSPDDGTNFRVKVMAEANHFIDLSQIPCNGKAADRIHQDGIHILVNMNGYTKGARNELFALRPAPIQAMWLGYPGTSGALFMDYIITDQETSPAEVAEQYSEKLAYMPHTFFIGDHANMFPHLKKKAVIDFKSNGHIYDNRIVLNGIDLKAFLDSLPDVKIVKMKCPDGGDNADSSNTALNMPVIPMNTIAEAVIEMINRGQIQITINGFSISNGLATTQINNKAATGEEVPRTIIVTTRSQYGLPEDAIVYCNFNQLYKIDPSTLQMWANILKRVPNSVLWLLRFPAVGEPNIQQYAQNMGLPQNRIIFSPVAPKEEHVRRGQLADVCLDTPLCNGHTTGMDVLWAGTPMVTMPGETLASRVAASQLTCLGCLELIAKNRQEYEDIAVKLGTDLEYLKKVRGKVWKQRISSPLFNTKQYTMELERLYLQMWEHYAAGNKPDHMIKPVEVTESA | – | – | binding [6]: binds
